For two substances, binding results are on record in paper PMC8976005.

Protein sequences, listed by entry. Tags and fused reporters are not part of them.
UniProt Q9UI12: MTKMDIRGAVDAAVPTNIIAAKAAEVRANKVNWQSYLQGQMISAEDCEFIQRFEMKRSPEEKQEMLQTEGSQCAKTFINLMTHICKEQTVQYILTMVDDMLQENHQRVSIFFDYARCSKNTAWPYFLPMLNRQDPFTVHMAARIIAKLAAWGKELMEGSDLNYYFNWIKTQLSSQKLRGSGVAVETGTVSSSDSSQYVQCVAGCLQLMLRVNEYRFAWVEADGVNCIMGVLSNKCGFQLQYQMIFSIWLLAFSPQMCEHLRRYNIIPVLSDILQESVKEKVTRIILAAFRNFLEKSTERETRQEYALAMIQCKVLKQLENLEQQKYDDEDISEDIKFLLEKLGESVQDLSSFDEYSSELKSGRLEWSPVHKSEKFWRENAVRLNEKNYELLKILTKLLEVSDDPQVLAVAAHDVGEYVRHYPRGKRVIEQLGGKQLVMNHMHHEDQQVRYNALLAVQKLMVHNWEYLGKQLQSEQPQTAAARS

This experiment concerns the target T1, TurboID-STK11IP (human) (UniProt Q8N1F8).
T1 sequence: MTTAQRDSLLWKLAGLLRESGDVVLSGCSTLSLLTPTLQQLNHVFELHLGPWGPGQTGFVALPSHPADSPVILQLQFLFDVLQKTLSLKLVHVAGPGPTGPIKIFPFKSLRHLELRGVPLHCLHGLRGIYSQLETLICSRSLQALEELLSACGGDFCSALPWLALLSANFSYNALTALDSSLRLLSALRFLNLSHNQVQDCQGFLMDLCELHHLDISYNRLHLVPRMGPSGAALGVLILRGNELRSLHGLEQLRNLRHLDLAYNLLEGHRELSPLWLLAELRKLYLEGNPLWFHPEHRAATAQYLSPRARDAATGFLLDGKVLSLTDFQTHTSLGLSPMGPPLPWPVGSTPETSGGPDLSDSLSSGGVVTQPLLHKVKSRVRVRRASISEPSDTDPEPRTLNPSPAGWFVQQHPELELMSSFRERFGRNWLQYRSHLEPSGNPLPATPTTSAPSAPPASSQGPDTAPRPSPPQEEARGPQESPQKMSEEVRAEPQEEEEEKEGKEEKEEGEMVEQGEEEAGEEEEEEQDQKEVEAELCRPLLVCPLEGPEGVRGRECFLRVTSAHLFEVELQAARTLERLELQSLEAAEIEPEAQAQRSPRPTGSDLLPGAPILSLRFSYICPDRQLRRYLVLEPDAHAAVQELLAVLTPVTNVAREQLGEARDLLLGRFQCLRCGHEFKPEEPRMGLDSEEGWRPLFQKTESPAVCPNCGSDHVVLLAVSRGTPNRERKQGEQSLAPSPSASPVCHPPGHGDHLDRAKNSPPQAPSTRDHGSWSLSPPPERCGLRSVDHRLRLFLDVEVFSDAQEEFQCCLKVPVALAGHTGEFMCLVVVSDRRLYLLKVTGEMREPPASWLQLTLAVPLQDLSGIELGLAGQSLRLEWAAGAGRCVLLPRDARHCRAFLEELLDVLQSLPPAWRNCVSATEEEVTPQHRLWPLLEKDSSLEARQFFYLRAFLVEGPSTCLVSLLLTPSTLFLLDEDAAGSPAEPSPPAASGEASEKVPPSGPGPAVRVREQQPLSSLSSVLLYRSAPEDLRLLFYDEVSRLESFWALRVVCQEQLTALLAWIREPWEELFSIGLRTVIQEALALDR
Description: proximity labelling; HEK293T cells stably expressing TurboID-STK11IP; 50 μM biotin for 2 h in complete or amino acid depleted medium; 1% SDS lysis, streptavidin beads, on-beads digestion, MS.

Results are given in words; binding and its absence hold for the method and conditions named. Binding seen in cells or lysates may run through a third protein. A yes stands for co-enrichment or nearness to the bait. Other partners may have been found.

ATP6V1B (human (endogenous in HEK293T)): the binding entry is reported as “binds”.
Regarding ATP6V1H (from UniProt Q9UI12 1-483), the binding result is recorded as “binds”.
